Hit rate of the full screen: of about 390,000 compounds, about 610 (0.16%) were called active. The shares of active, inactive and inconclusive entries below differ from those in the screen. Calls come from the whole dose curve; as a rule, active = well fitted inhibition curve with a large enough effect; inconclusive = small, poorly fitted or top-dose-only effect, or effect the other way, or another doubt; inactive = no such curve, though single readings can be large or run the other way. Potencies beside an inconclusive call are fits to weak or partial responses and may not hold up.
Experiment: Nrf2 qHTS screen for inhibitors: counterscreen for cytotoxicity
Conditions: A549 ARE-Fluc cells, CellTiter-Fluor viability, 18-24 h; activity change, negative = cytotoxicity: at 46 µM (top of the series)
In short: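 A549 ARE_Fluc cells in 5% FBS OPTI-MEM were exposed to compounds in concentration-response for 18-24 h at 37 deg C. Viability was read by CellTiter-Fluor fluorescence (Ex 405/Em 525) after 30 min, before the luciferase read.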
For O=C(CN1CCN(CC(=O)Nc2ccc3c(c2)OC2(CCCCC2)O3)CC1)Nc1cccc(F)c1, the Potency was inconclusive: 20.6 µM [falling, single point]. For COc1ccccc1/C=C/CN1CCC(n2nccc2NC(=O)CCc2ccccc2)CC1, the Potency was inconclusive: 29.1 µM [falling, partial curve, poor fit]. For COc1cc(NC(=O)c2cc3ccccc3cc2O)c(OC)cc1Cl, the Potency was inconclusive: 23.1 µM [falling, partial curve, poor fit]. For COc1ccc2[nH]cc(CC(=O)O)c2c1, the “activity change, negative = cytotoxicity” value was inactive: 1.94%. In the case of O=C(c1cccs1)c1no[n+]([O-])c1C(=O)c1cccs1, the Potency is reported as inconclusive: 29.1 µM [falling, single point]. For Cc1oc2ccc(O)c(CN3CCOCC3)c2c1C(=O)Nc1ccccc1, the Potency was inconclusive: 5.8 µM [activator, partial curve, poor fit]. In the case of COC(CNC(=O)c1cn(C)c2ccc(S(=O)(=O)N(C)C3CCCCC3)cc2c1=O)OC, the “activity change, negative = cytotoxicity” value is reported as inactive: 0.105%. For O=S(=O)(C/C(=C/CO)S(=O)(=O)c1ccccc1)c1ccccc1, the Potency was active: 16.4 µM. In the case of O=C(NC1CCN(Cc2ccccc2)CC1)c1cccc(S(=O)(=O)Nc2ccc(F)cc2)c1, the Potency is reported as inconclusive: 18.4 µM [falling, single point]. For CN(C)c1ccc(CNC(=O)C2CCCN(S(=O)(=O)c3ccc4c(c3)oc(=O)n4C)C2)cc1 (centres undefined), the “activity change, negative = cytotoxicity” value was inactive: 9.4%. In the case of O=C(Nc1cccc(Cl)c1)Nc1ccc(Br)cc1F, the Potency is reported as inconclusive: 25.9 µM [falling, single point]. For O=C(COC(=O)c1ccc([N+](=O)[O-])s1)c1ccc[nH]1, the “activity change, negative = cytotoxicity” value was inactive: -14.6%. In the case of COc1ccc(-n2c(COc3ccc(C)cc3)nnc2SCC(N)=O)cc1, the Potency is reported as inconclusive: 29.1 µM [falling, partial curve, poor fit]. For COc1ccc(C[C@H]2CN3C(=NC[C@@H]3C(C)C)N2C[C@H](C)NC(=O)c2ccc(C)c(Br)c2)cc1, the Potency was inconclusive: 20.6 µM [falling, single point]. In the case of Cc1onc(-c2ccccc2Cl)c1C(=O)NC(=S)Nc1ccc(C(C)C)cc1, the Potency is reported as inconclusive: 16.4 µM [activator, partial curve, poor fit]. With O=C(Nc1ccc(N2CCN(C(=O)c3ccco3)CC2)cc1)C(c1ccccc1)c1ccccc1 the Potency was inconclusive: 10.3 µM [activator, partial curve, poor fit]. For CC(=O)Nc1ccc(Oc2sc(C(=O)c3ccccc3)c(N)c2C#N)cc1, the Potency was inconclusive: 20.6 µM [falling, partial curve, poor fit]. With COc1c(C)cc(C(=O)C2CCCN(C(=O)c3ccc4cc[nH]c4c3)C2)cc1C (centres undefined) the Potency was inconclusive: 32.6 µM [falling, partial curve, poor fit]. With Cc1cccc(OCCCCn2c(C3CC(=O)N(c4ccccc4Cl)C3)nc3ccccc32)c1 (centres undefined) the Potency was inconclusive: 29.1 µM [falling, single point]. For CCOC(=O)c1nn(-c2ccccc2)c(=O)cc1SC(C)C, the Potency was inconclusive: 29.1 µM [activator, partial curve, poor fit]. With CCOC(=O)c1c(C)[nH]c(C(=O)C(C)OC(=O)c2cccc(OCc3c(C)noc3C)c2)c1C (centres undefined) the Potency was inconclusive: 29.1 µM [falling, single point]. For COc1ccc(CN(C)S(=O)(=O)c2nnc(NC(=O)c3ccccc3Br)s2)cc1, the “activity change, negative = cytotoxicity” value was inactive: -2.95%. In the case of Cc1cc(C)nc(NC(=NCc2ccc3c(c2)OCO3)NC(=O)Nc2ccccc2)n1, the “activity change, negative = cytotoxicity” value is reported as inactive: 2.11%. With CCC(C)C(=O)Nc1nnc(SCC(=O)NC2CCCCC2)s1 (centres undefined) the Potency was inconclusive: 5.8 µM [falling, partial curve, poor fit]. In the case of Nc1ncnc2c1C1(CCCCC1)Cc1ccccc1-2, the “activity change, negative = cytotoxicity” value is reported as inactive: -2.17%. In the case of O=C(Cc1c[nH]c2ccccc12)NC1(C(=O)NC2CCCCC2)CCCCC1, the “activity change, negative = cytotoxicity” value is reported as inactive: -3.65%. In the case of NC(=O)c1ccccc1NC(=O)C1CCCN(c2ncnc3onc(-c4ccc(F)cc4)c23)C1 (centres undefined), the “activity change, negative = cytotoxicity” value is reported as inactive: -9.33%. In the case of COc1ccc(Nc2c3c(nc4ccc(NC(=O)/C=C/c5cc(OC)c(OC)c(OC)c5)cc24)CCCC3)cc1OC, the Potency is reported as inconclusive: 29.1 µM [falling, single point]. In the case of C[C@@H]1CC=C[C@H]2[C@H]1C(=O)N(Cc1ccccc1)[C@H]2c1ccc2ccccc2c1, the Potency is reported as inconclusive: 8.2 µM [falling, partial curve, poor fit]. For O=[N+]([O-])c1ccccc1S(=O)(=O)Oc1ccc(/C=N/n2cnnc2)cc1, the Potency was inconclusive: 18.4 µM [falling, partial curve, poor fit]. With O=C(C1=C(O)C(=O)N(Cc2ccco2)C1c1cccnc1)c1cc2ccccc2o1 (centres undefined) the Potency was inconclusive: 32.6 µM [falling, partial curve, poor fit]. In the case of Cc1cc[n+](-c2[nH]c(=O)sc2/C=N/NC(=O)c2ccccc2[O-])cc1C, the Potency is reported as inconclusive: 23.1 µM [falling, partial curve, poor fit]. For CCC(C)(c1ccc(C(=O)OC)s1)c1ccc(C(=O)OC)s1, the Potency was inconclusive: 10.3 µM [falling, partial curve, poor fit]. For CSCC[C@H](NC(=O)c1ccc2ccccc2c1)C(=O)N1CCC2(CC1)NCCc1[nH]cnc12, the Potency was inconclusive: 11.6 µM [falling, partial curve]. In the case of CCOC(=O)c1ccc(NC(=S)NCCC2=CCCCC2)cc1, the “activity change, negative = cytotoxicity” value is reported as inactive: -3%. In the case of O=[N+]([O-])c1cc(NCCO)c(N2CCCCCC2)c2nonc12, the Potency is reported as inconclusive: 23.1 µM [falling, single point]. With Cc1c(C(=O)N2CCN(c3ccccn3)CC2)oc2c(F)cccc12 the “activity change, negative = cytotoxicity” value was inactive: 1.67%. With COc1ccc(N2CCN(C(=O)CCNS(=O)(=O)c3cccs3)CC2)cc1 the “activity change, negative = cytotoxicity” value was inactive: -5.66%. In the case of CCOc1cc(C)c(-c2onc(C(F)(F)F)c2-c2csc(C)n2)c(O)c1, the Potency is reported as active: 25.9 µM. With CC1C=CCC2C(=O)N(c3cccc(C(=O)Nc4ccc(Br)cc4)c3)C(=O)C12 (centres undefined) the Potency was inconclusive: 29.1 µM [falling, single point]. In the case of CCCCN1CCc2c1nc1ccc(Br)cc1c2N, the Potency is reported as inconclusive: 18.4 µM [falling, single point]. In the case of CC(C)CC(=O)NC(=S)Nc1nc(-c2cccc3ccccc23)cs1, the Potency is reported as inconclusive: 23.1 µM [falling, single point]. In the case of COc1ccc(C(=O)N/N=C\c2coc3ccccc3c2=O)cc1, the Potency is reported as inconclusive: 32.6 µM [falling, partial curve, poor fit]. With Cc1ccc(C)c(S(=O)(=O)N2CCCCC2CCNC(=O)C(=O)NCc2ccco2)c1 (centres undefined) the “activity change, negative = cytotoxicity” value was inactive: -11.1%. With Cc1[nH]c(-c2ccc(F)cc2)cc1C(=O)N1CCN(c2ccccc2)CC1 the Potency was inconclusive: 20.6 µM [falling, partial curve, poor fit]. With COc1cccc(NC(=O)COC(=O)C2CC3CCCC(C2)C3=O)c1 (centres undefined) the Potency was inconclusive: 23.1 µM [falling, partial curve, poor fit]. For CC(=O)Nc1cc2c3c(cccc3c1)-c1ccccc1-2, the Potency was inconclusive: 16.4 µM [activator, single point]. For CCCCCn1c(N2CCC(Cc3ccccc3)CC2)nc2c1c(=O)[nH]c(=O)n2C, the Potency was inconclusive: 25.9 µM [falling, single point]. For Cc1cccc(Cn2c(CN3CCC(C(=O)NCCc4ccccc4)CC3)cc3ccccc32)c1, the “activity change, negative = cytotoxicity” value was inactive: -20.1%. In the case of Cc1ccc(NS(=O)(=O)c2ccc(OCC(=O)Nc3cccc([N+](=O)[O-])c3)c(C)c2)cc1, the Potency is reported as inconclusive: 29.1 µM [falling, single point]. In the case of COC(=O)c1nn(-c2ccccc2)c(Cl)c1/C=N/OCc1c(Cl)cccc1Cl, the “activity change, negative = cytotoxicity” value is reported as inactive: 11.5%. In the case of CC(NC(=O)COc1ccc(/C=N/NC(=O)C(=O)Nc2ccccc2Br)cc1)c1ccccc1 (centres undefined), the Potency is reported as inconclusive: 29.1 µM [falling, partial curve, poor fit]. For COc1ccc(-c2cc(C(F)(F)F)n3nc(C(=O)Nc4c(C)n(C)n(-c5ccccc5)c4=O)c(Cl)c3n2)cc1, the Potency was inconclusive: 29.1 µM [falling, partial curve, poor fit]. With COc1cc(OC)c(C2=NOC(C(=O)NCCc3ccccc3)C2)cc1Cl (centres undefined) the Potency was inconclusive: 3.26 µM [activator, partial curve, poor fit]. For Oc1ccc(N=Nc2nc(-c3ccccc3)c(-c3ccccc3)[nH]2)cc1, the Potency was inconclusive: 25.9 µM [falling, single point]. For O=C(NCc1ccc(F)cc1)C1CCCN(c2nc3ccsc3c(=O)s2)C1 (centres undefined), the Potency was inconclusive: 0.206 µM [activator, full curve, poor fit]. With Cc1ccccc1NC(=O)C(Cl)=C(Cl)Cl the “activity change, negative = cytotoxicity” value was inactive: 0.0155%. For CN(C(=O)CSc1nc2ccccc2o1)C1CCS(=O)(=O)C1 (centres undefined), the Potency was inconclusive: 5.8 µM [falling, partial curve, poor fit]. In the case of C/C(=N\NC(=O)CNC(=O)c1cccs1)c1ccc(Cl)c(Cl)c1, the Potency is reported as inconclusive: 23.1 µM [falling, partial curve, poor fit]. For Cc1ccc(C)c(/C=N/NC(=S)NC(C)C)c1, the Potency was inconclusive: 9.2 µM [activator, partial curve, poor fit]. With COc1ccc(Cl)cc1NS(=O)(=O)c1cc(-c2cc(C)no2)ccc1C the “activity change, negative = cytotoxicity” value was inactive: -21.4%. With COc1ccccc1N1N=C(c2cccs2)CC1c1ccccc1 (centres undefined) the Potency was inconclusive: 16.4 µM [activator, partial curve]. With O=c1c2ccccc2nc(COc2ccccc2)n1/N=C/c1cc([N+](=O)[O-])ccc1O the “activity change, negative = cytotoxicity” value was inactive: -8.76%. With COC(=O)c1ccc(C(NC(=O)OCc2ccccc2)/C(F)=C/[C@@H](C)C(=O)NCc2ccc(-c3ccccc3)cc2)cc1 (some centres undefined) the “activity change, negative = cytotoxicity” value was inactive: 0.627%.

— PubChem BioAssay AID504648 (National Center for Advancing Translational Sciences (NCATS), 2011)
% is set by controls: 0 for no effect and ±100 for the full control effect; potency is the fitted concentration of half-maximal effect.
